These are yes or no findings as the source states them, for the method shown. Binding seen in cells or lysates may run through a third protein. Some binding calls cover weakened binding; strength is not graded here. Tags and fused reporters may be left off the sequences shown.
Legend:
[1] = molecular target: T1, V5-tagged wild-type ACVR1 (activin A type I receptor) (UniProt Q04771); experiment: co-immunoprecipitation, figure legend of FIG. 3a
T1 sequence (looked up): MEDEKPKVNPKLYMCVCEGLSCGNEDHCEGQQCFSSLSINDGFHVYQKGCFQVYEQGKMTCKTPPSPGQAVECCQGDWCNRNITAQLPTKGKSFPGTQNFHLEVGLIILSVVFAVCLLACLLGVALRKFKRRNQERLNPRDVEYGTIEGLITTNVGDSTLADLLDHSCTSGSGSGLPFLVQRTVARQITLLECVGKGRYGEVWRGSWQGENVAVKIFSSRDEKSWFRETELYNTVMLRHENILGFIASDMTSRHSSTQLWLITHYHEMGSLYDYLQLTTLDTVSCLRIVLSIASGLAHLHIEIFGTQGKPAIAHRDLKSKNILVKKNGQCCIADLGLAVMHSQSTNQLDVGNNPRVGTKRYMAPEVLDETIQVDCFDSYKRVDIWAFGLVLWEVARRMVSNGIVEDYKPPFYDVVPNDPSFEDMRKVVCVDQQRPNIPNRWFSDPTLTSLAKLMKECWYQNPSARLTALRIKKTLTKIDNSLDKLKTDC

Chains of the proteins cited; added tags and fusions are not shown. Lines headed by an entry give the natural chain unless they say otherwise; changes in a name come on top. A line that says so, or that is headed by a name, gives the form on record, which may keep a tag or linker.
HA-tagged BMPR2-E376K mutant (bone morphogenetic protein type 2 receptor, glutamic acid 376 mutated to lysine) (Q13873, form named): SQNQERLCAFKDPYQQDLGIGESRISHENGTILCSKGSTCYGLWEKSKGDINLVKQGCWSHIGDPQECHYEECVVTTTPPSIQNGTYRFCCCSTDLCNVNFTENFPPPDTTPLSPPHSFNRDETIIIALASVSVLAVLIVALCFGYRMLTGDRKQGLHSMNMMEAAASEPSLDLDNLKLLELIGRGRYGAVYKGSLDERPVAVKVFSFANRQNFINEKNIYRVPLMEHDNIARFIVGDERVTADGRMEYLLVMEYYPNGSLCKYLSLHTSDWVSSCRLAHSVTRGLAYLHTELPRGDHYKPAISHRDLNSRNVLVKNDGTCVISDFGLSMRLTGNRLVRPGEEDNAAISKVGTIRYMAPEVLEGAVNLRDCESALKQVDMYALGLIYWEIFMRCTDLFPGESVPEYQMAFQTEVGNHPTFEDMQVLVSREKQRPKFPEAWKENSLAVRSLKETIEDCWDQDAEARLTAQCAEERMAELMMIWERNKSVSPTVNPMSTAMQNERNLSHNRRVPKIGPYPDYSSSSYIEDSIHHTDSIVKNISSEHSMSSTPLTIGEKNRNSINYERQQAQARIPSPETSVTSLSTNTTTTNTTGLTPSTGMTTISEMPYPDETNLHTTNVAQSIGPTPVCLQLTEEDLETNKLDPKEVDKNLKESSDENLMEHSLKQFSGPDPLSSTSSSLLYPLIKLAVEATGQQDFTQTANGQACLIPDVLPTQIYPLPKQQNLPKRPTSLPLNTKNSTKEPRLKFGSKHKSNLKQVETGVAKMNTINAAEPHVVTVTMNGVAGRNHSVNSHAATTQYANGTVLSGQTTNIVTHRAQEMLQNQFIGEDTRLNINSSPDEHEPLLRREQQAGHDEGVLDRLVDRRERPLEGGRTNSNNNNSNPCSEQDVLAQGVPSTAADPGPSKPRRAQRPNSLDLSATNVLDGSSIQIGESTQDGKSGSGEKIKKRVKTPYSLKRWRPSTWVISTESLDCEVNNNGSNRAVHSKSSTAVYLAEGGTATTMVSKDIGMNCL

[2] = molecular target: T1, V5-tagged wild-type ACVR1 (activin A type I receptor); experiment: co-immunoprecipitation (FIG. 3a), no BMP ligand
[3] = molecular target: T1, V5-tagged wild-type ACVR1 (activin A type I receptor); experiment: co-immunoprecipitation (anti-HA agarose, western blot) from transfected HEK293T cells, no BMP ligand

Measured: binding

HA-tagged BMPR2-E376K mutant (bone morphogenetic protein type 2 receptor, glutamic acid 376 mutated to lysine) (from UniProt Q13873 27-1038)
binds: all assays above
